These are yes or no findings as the source states them, for the method shown. Binding seen in cells or lysates may run through a third protein. Some results given as binding are weak or reduced against the parent protein; the word gives no strength.
Target: T1, KIN (endogenous) (human (endogenous in KYSE30 and HEK293T)) (UniProt O60870)
T1 sequence: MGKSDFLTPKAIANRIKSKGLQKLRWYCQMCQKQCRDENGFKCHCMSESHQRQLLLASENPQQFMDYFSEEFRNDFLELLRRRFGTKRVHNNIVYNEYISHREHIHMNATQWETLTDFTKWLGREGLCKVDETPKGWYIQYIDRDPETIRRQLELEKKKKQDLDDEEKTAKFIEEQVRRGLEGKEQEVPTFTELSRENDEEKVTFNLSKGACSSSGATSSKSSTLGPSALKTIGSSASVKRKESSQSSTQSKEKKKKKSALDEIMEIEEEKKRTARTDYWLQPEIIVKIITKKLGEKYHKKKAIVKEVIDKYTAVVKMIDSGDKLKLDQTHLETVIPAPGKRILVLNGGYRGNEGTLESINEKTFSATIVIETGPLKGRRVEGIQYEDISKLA
Experiment: co-IP; endogenous immunoprecipitation of KIN from KYSE30 samples; blots for DHX9, DDX5 and RPS15

The chains behind the UniProt entries cited, without tags or fusion partners.
UniProt P17844: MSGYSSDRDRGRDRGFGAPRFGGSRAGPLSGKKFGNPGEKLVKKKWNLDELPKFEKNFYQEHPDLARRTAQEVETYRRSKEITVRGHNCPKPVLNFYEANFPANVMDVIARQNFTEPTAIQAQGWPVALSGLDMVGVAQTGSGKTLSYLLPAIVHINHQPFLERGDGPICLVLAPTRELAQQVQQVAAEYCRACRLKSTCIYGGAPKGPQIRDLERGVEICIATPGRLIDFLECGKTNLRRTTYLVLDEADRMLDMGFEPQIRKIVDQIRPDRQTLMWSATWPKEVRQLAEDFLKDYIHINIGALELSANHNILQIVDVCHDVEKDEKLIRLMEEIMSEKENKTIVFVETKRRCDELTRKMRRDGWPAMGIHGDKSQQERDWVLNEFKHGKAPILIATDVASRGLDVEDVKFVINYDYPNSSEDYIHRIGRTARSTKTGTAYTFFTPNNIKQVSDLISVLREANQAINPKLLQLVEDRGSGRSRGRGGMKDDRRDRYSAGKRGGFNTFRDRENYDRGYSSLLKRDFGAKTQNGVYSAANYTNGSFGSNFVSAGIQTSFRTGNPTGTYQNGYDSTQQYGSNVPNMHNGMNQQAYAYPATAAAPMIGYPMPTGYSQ

binding: binds
Substance: DDX5 (from UniProt P17844 1-614)

From publication PMC12354822
